{"source": "paper PMC13226657", "about": "(The EMBO Journal, 2026)", "binders": {"B1": {"name": "SLC1A1g-X, Hg2+-crosslinked K269C/W441C mutant of SLC1A1g (protein, UniProt P43005 1-524)", "chain": "MGKPARKGCEWKRFLKNNWVLLSTVAAVVLGITTGVLVREHSNLSTLEKFYFAFPGEILMRMLKLIILPLIISSMITGVAALDSNVSGKIGLRAVVYYFCTTLIAVILGIVLVVSIKPGVTQKVGEIARTGSTPEVSTVDAMLDLIRNMFPENLVQACFQQYKTKREEVKPPSDPEMTMTEESFTAVMTTAISKTKTKEYKIVGMYSDGINVLGLIVFCLVFGLVIGKMGEKGQILVDFFNALSDATMKIVQIIMCYMPLGILFLIAGCIIEVEDWEIFRKLGLYMATVLTGLAIHSIVILPLIYFIVVRKNPFRFAMGMAQALLTALMISSSSATLPVTFRCAEENNQVDKRITRFVLPVGATINMDGTALYEAVAAVFIAQLNDLDLGIGQIITISITATSASIGAAGVPQAGLVTMVIVLSAVGLPAEDVTLIIAVDCLLDRFRTMVNVLGDAFGTGIVEKLSKKELEQMDVSSEVNIVNPFALESTILDNEDSDTKKSYVNGGFAVDKSDTISFTQTSQF", "modifications": "Hg2+-mediated cross-linking of K269C/W441C (20-molar excess of HgCl2)"}}, "biological_target": "SLC1A1g-X, Hg2+-crosslinked K269C/W441C mutant of SLC1A1g (human) (UniProt P43005)", "assay": "cryo-EM structure; SLC1A1g-X (Hg2+-crosslinked K269C/W441C) in 0.01% GDN, 300 mM KCl, with 100 µM compound 3e; refined with C3 symmetry, then symmetry expansion; both purified", "note": "Results are given in words; binding and its absence hold for the method and conditions named. Some entries that bind do so weakly or less than the wild type."}
{"binder": "B1", "values": [{"measurement": "binding", "result": "binds"}]}
